From US4659691A (Merck & Co., Inc., priority 1985, dated 1987)
Strings that start with PEPTIDE1 are HELM notation: dots part the residues, brackets hold end groups and non-standard residues.

Experiment: general procedure: Boc solid-phase peptide synthesis; Boc-Pro esterified to 2% cross-linked polystyrene-divinylbenzene; dicyclohexylcarbodiimide

H-Tyr(Bzl)-D-Trp-Leu-Arg-Trp-Pro-OCH2
crude mass (whole synthesis, scale 2 mmol): 2.22 g

PEPTIDE1{Y.[dW].L.R.W.P}$PEPTIDE1,PEPTIDE1,6:R2-1:R1$$$V2.0
final HPLC purity (late stage modification step, HPLC): 86%
